From PMC9437101, “Curcumin-based-fluorescent probes targeting ALDH1A3 as a promising tool for glioblastoma precision surgery and early diagnosis” (Communications Biology, 2022)
Several values for one entry are separate records, joined by “and”; a condition that tells them apart may be missing. Identical values can stand only once.

Test: Chemical stability and cross reactions with biomolecules assay
[1] = probe alone diluted in SEC buffer, 10 μM

SMILES: COc1cc(/C=C/C(O)=C/C(=O)/C=C/c2ccc(OCc3cn(CCOc4ccc(C=O)cc4)nn3)c(OC)c2)ccc1O [Probe 10]
- probe fluorescence intensity (normalized) (Cysteine 100 μM, probe 10 μM, listed as probe B): 1.625 and 1.575 and 1.499
- probe fluorescence intensity (normalized) (DMSO 15%, probe 10 μM, listed as probe B): 1.775 and 1.54 and 1.432
- probe fluorescence intensity (normalized) (FBS 0.1% v/v, probe 10 μM, listed as probe B): 1.514 and 1.38 and 1.555
- probe fluorescence intensity (normalized) (Fe(II)Cl2 100 μM, probe 10 μM, listed as probe B): 0.527 and 0.4701 and 0.4219
- probe fluorescence intensity (normalized) (Glutamate 100 μM, probe 10 μM, listed as probe B): 1.425 and 1.315 and 1.347
- probe fluorescence intensity (normalized) (Glycine 100 μM, probe 10 μM, listed as probe B): 1.731 and 1.746 and 1.699
- probe fluorescence intensity (normalized) (H2O2 100 μM, probe 10 μM, listed as probe B): 1.861 and 1.755 and 1.838
- probe fluorescence intensity (normalized) (Hepes pH= 7.0, 20 mM, probe 10 μM, listed as probe B): 2.228 and 1.749 and 1.834
- probe fluorescence intensity (normalized) (Hepes pH= 7.5, 20 mM, probe 10 μM, listed as probe B): 2.088 and 1.728 and 1.48
- probe fluorescence intensity (normalized) (Lysine 100 μM, probe 10 μM, listed as probe B): 2.1854 and 2.174 and 1.79
- probe fluorescence intensity (normalized) (MgCl2 2.5 mM, probe 10 μM, listed as probe B): 2.445 and 1.42 and 1.343
- probe fluorescence intensity (normalized) (NAD 500 μM, probe 10 μM, listed as probe B): 2.023 and 1.791 and 1.594
- probe fluorescence intensity (normalized) (NaCl 150 mM, probe 10 μM, listed as probe B): 1.219 and 1.813 and 1.965
- probe fluorescence intensity (normalized) (NaOH 100 μM, probe 10 μM, listed as probe B): 1.498 and 1.488 and 1.365
- probe fluorescence intensity (normalized) (Tris pH= 8.0, 20 mM, probe 10 μM, listed as probe B): 1.765 and 1.634 and 1.695
- probe fluorescence intensity (normalized) (Tris pH= 8.5, 20 mM, probe 10 μM, listed as probe B): 1.3708 and 1.307 and 1.2219
- probe fluorescence intensity (normalized) (Trypsine 0.05 mg/ml, probe 10 μM, listed as probe B): 1.845 and 1.523 and 1.488
- probe fluorescence intensity (normalized) (Tryptophan 100 μM, probe 10 μM, listed as probe B): 2.372 and 1.933 and 1.88
- probe fluorescence intensity (normalized) (Tyrosine 100 μM, probe 10 μM, listed as probe B): 1.87 and 1.826 and 1.7708
- probe fluorescence intensity (normalized) (ZnSO4 100 μM, probe 10 μM, listed as probe B): 2.559 and 1.623 and 1.692
- probe fluorescence intensity (normalized) [1]: 1.88 and 1.626 and 1.601
- probe fluorescence intensity (normalized) (β-mercaptoEtOH 1 mM, probe 10 μM, listed as probe B): 2.412 and 1.987 and 1.86

SMILES: CCOC(=O)Cn1cc(COc2ccc(/C=C/C(=O)/C=C(O)/C=C/c3ccc(O)c(OC)c3)cc2OC)nn1 [Probe 11]
- probe fluorescence intensity (normalized) (Cysteine 100 μM, probe 10 μM, listed as probe A): 1.599 and 1.451 and 1.353
- probe fluorescence intensity (normalized) (DMSO 15%, probe 10 μM, listed as probe A): 1.051 and 1.005 and 0.9985
- probe fluorescence intensity (normalized) (FBS 0.1% v/v, probe 10 μM, listed as probe A): 1.524 and 1.471 and 1.375
- probe fluorescence intensity (normalized) (Fe(II)Cl2 100 μM, probe 10 μM, listed as probe A): 0.4341 and 0.4478 and 0.4501
- probe fluorescence intensity (normalized) (Glutamate 100 μM, probe 10 μM, listed as probe A): 0.9414 and 0.9185 and 0.9094
- probe fluorescence intensity (normalized) (Glycine 100 μM, probe 10 μM, listed as probe A): 1.197 and 1.451 and 1.216
- probe fluorescence intensity (normalized) (H2O2 100 μM, probe 10 μM, listed as probe A): 0.9779 and 1.0853 and 1.053
- probe fluorescence intensity (normalized) (Hepes pH= 7.0, 20 mM, probe 10 μM, listed as probe A): 1.526 and 1.494 and 1.465
- probe fluorescence intensity (normalized) (Hepes pH= 7.5, 20 mM, probe 10 μM, listed as probe A): 1.248 and 1.309 and 1.704
- probe fluorescence intensity (normalized) (KCl 150 mM, probe 10 μM, listed as probe A): 0.9414 and 0.9071 and 1.106
- probe fluorescence intensity (normalized) (Lysine 100 μM, probe 10 μM, listed as probe A): 0.9733 and 0.9231 and 0.9139
- probe fluorescence intensity (normalized) (MgCl2 2.5 mM, probe 10 μM, listed as probe A): 1.094 and 0.9276 and 0.9299
- probe fluorescence intensity (normalized) (NAD 500 μM, probe 10 μM, listed as probe A): 1.302 and 1.337 and 1.177
- probe fluorescence intensity (normalized) (NaCl 150 mM, probe 10 μM, listed as probe A): 1.117 and 1.069 and 1.522
- probe fluorescence intensity (normalized) (NaOH 100 μM, probe 10 μM, listed as probe A): 1.078 and 1.172 and 0.9276
- probe fluorescence intensity (normalized) (Tris pH= 8.0, 20 mM, probe 10 μM, listed as probe A): 2.369 and 2.308 and 1.992
- probe fluorescence intensity (normalized) (Tris pH= 8.5, 20 mM, probe 10 μM, listed as probe A): 1.012 and 1.243 and 0.9825
- probe fluorescence intensity (normalized) (Trypsine 0.05 mg/ml, probe 10 μM, listed as probe A): 1.28 and 1.179 and 1.174
- probe fluorescence intensity (normalized) (Tryptophan 100 μM, probe 10 μM, listed as probe A): 1.09 and 0.9802 and 0.882
- probe fluorescence intensity (normalized) (Tyrosine 100 μM, probe 10 μM, listed as probe A): 0.8751 and 0.9162 and 0.8888
- probe fluorescence intensity (normalized) (ZnSO4 100 μM, probe 10 μM, listed as probe A): 1.06 and 0.9802 and 1.25
- probe fluorescence intensity (normalized) [1]: 1.083 and 0.9139 and 1.003
- probe fluorescence intensity (normalized) (β-mercaptoEtOH 1 mM, probe 10 μM, listed as probe A): 1.561 and 1.661 and 1.574
